The values that follow come from the supplement of paper PMC7666118.

Sequences of proteins named here, by UniProt entry; tags and fusion partners are left off. A change or cut given only in a name is not applied to a line headed by its entry.
UniProt Q9HCE0: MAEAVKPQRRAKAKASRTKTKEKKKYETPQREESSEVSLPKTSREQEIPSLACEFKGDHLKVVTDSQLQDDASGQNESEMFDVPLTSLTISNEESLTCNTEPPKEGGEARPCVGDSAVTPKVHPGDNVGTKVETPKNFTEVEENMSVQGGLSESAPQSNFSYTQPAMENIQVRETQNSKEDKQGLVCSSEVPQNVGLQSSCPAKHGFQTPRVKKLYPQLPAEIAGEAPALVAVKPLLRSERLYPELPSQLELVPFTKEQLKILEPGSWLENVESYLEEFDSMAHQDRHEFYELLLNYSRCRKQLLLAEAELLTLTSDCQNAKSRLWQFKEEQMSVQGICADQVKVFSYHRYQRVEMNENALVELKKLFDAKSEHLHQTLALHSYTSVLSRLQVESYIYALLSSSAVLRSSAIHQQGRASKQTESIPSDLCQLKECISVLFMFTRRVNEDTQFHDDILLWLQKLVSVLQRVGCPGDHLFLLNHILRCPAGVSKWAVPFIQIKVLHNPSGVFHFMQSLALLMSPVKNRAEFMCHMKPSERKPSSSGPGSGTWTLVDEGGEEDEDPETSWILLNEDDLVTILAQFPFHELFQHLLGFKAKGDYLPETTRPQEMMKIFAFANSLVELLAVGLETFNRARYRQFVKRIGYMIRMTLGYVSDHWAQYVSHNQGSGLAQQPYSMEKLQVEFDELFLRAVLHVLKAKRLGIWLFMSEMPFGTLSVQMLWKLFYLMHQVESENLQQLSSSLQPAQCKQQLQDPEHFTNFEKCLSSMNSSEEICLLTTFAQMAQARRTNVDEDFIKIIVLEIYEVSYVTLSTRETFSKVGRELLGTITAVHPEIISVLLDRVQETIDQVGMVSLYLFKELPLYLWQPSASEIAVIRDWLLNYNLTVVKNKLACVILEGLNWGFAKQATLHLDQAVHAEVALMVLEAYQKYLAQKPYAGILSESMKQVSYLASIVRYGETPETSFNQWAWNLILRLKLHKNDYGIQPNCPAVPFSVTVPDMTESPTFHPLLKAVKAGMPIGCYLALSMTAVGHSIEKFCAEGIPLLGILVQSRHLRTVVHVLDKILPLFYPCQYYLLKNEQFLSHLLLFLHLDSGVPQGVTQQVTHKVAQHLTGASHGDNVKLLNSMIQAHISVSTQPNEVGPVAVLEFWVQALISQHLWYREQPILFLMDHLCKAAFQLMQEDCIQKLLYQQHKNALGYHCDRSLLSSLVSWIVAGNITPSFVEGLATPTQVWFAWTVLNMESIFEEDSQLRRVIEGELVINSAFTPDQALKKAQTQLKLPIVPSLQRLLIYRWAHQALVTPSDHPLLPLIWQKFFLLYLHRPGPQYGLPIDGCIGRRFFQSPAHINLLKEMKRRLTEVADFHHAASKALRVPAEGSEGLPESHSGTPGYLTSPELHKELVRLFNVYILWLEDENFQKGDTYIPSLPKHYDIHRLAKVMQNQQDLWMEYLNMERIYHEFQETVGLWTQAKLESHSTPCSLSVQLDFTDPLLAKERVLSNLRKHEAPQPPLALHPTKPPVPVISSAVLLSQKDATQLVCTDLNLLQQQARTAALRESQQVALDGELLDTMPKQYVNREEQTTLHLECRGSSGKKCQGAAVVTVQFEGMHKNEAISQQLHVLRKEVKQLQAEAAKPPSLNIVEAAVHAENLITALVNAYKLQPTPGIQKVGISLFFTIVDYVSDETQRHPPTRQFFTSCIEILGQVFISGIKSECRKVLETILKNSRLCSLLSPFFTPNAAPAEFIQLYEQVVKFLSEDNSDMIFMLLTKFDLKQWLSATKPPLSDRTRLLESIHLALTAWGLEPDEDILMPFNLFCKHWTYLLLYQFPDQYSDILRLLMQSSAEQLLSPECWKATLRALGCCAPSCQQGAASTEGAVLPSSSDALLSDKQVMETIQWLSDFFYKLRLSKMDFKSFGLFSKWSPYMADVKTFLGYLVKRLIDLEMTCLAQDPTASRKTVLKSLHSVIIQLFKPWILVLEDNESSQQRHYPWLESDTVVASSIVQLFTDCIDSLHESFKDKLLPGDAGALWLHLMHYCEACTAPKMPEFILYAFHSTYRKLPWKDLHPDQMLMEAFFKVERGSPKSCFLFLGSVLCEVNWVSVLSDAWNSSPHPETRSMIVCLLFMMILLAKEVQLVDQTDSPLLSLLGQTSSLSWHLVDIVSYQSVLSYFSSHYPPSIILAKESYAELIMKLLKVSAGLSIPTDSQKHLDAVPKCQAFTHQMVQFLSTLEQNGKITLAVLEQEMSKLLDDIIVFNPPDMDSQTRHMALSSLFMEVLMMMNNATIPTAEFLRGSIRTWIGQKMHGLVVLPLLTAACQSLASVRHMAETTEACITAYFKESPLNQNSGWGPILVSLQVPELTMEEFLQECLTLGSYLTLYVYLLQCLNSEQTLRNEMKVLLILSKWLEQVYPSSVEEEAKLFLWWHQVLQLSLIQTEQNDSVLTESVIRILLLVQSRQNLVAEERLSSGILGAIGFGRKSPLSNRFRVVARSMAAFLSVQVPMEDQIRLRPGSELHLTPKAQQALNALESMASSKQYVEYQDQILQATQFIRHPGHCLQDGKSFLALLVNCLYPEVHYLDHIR
UniProt O00629, whole entry: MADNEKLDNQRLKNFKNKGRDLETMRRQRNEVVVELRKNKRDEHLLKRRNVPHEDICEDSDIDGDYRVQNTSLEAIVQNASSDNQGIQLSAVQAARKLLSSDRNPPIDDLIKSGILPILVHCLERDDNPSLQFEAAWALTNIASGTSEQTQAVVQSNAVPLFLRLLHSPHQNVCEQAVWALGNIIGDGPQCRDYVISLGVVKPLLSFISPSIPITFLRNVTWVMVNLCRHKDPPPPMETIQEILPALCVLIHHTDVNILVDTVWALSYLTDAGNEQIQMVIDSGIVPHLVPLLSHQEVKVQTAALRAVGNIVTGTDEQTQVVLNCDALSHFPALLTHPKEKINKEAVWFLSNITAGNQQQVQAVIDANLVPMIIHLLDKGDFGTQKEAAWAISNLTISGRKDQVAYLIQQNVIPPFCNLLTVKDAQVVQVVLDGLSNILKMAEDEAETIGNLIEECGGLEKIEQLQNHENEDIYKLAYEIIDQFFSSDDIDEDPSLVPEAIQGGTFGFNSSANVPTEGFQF
UniProt Q93052: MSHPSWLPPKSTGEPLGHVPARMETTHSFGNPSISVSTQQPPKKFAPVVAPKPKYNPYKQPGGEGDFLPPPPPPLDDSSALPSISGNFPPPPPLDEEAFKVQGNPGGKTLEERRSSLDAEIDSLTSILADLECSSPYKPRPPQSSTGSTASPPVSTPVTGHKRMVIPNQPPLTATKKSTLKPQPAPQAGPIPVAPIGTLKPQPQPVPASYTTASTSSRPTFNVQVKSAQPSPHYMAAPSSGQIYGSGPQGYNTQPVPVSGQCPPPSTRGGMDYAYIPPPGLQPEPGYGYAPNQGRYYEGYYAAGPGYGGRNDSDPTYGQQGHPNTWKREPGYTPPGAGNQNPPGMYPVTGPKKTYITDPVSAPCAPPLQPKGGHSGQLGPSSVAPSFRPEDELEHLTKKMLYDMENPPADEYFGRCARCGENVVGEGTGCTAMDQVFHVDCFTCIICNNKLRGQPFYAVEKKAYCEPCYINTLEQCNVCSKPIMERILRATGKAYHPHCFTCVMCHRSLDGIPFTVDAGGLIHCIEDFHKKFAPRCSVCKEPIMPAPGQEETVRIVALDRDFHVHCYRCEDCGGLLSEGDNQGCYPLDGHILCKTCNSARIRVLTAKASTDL
UniProt P33176: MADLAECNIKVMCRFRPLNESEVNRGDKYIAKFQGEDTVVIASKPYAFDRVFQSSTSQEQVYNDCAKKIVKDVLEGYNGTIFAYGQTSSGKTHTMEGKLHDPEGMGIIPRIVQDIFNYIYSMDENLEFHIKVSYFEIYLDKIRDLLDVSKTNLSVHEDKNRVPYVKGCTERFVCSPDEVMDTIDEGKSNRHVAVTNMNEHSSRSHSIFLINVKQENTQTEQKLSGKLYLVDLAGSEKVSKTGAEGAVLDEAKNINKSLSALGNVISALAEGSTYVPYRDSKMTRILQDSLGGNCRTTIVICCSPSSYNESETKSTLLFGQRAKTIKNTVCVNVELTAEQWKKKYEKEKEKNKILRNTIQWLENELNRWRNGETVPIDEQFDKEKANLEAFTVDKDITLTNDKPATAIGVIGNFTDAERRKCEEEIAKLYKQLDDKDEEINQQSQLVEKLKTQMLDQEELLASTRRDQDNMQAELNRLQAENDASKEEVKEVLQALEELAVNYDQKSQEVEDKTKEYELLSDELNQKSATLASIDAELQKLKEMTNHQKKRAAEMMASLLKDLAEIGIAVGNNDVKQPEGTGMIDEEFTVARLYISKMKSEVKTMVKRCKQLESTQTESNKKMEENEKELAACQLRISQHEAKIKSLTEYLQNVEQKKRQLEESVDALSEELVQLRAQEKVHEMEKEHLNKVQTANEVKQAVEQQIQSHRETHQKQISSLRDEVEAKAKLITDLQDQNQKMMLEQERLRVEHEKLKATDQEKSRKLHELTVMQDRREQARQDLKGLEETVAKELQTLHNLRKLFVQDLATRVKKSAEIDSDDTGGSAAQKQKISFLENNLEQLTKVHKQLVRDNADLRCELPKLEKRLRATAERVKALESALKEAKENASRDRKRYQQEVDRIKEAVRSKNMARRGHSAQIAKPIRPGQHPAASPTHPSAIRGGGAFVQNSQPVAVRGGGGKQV
UniProt Q6P1Q0: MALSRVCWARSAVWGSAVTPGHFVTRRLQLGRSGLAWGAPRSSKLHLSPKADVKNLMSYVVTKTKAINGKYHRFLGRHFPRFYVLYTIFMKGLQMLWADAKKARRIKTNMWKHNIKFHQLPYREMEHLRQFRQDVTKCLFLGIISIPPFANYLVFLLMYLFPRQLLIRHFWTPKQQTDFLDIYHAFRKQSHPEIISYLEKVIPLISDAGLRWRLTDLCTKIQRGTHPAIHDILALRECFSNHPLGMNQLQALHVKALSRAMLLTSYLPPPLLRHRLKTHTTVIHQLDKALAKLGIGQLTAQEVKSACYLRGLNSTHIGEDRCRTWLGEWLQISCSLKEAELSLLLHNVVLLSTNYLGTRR
UniProt Q8WVP7: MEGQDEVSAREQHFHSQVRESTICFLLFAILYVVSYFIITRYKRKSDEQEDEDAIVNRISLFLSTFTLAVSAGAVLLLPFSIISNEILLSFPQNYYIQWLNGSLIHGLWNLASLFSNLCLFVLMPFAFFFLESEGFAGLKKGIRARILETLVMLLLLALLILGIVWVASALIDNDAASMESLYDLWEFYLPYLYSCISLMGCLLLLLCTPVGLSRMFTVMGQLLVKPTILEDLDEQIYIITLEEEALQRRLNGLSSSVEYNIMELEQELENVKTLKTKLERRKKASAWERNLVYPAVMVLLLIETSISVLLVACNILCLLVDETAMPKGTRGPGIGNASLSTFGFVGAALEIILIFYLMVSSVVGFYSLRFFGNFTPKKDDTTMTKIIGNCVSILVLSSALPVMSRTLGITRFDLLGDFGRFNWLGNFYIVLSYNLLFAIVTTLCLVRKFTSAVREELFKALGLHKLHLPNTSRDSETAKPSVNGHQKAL
UniProt Q4G0J3: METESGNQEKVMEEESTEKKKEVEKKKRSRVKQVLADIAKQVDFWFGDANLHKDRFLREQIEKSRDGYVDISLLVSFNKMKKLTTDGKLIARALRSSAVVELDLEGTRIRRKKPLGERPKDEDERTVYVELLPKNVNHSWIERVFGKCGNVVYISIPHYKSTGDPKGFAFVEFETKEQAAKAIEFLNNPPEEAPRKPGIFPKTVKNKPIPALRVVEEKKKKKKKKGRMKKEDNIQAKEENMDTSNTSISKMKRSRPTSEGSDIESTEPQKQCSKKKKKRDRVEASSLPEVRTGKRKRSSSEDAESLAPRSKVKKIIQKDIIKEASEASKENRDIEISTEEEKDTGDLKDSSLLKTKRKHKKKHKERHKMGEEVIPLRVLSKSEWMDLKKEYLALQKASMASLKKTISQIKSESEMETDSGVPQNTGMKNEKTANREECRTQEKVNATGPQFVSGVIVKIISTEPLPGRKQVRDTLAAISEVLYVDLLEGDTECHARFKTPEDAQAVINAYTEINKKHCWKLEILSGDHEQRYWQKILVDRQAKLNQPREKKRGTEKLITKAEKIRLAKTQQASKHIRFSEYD
UniProt Q13601: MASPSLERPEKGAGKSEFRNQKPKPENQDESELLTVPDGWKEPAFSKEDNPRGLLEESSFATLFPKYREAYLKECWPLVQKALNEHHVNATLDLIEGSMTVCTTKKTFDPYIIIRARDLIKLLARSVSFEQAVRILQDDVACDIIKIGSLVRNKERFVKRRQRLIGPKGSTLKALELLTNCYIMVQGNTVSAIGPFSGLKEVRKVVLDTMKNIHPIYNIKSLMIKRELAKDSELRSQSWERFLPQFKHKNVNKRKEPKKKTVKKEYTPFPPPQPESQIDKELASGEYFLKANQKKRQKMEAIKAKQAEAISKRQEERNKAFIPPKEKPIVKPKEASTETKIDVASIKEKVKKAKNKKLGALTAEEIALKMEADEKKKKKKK

The other results are listed elsewhere or left out.

Compound in the assay: COc1ccc(Cn2ccc3ccc(C(=O)NO)cc32)cc1
Description: dose-dependent thermal stabilisation call (2D-TPP, DLPTP, 10% FDR) (binary (1 = stabilised)); higher = stabilised by the compound. The conditions noted are these: system: HL-60 intact cells; concentration range 0.04-10 µM.
In the case of KIAA1632 (UniProt Q9HCE0), the “dose-dependent thermal stabilisation call” value is inactive: 0. Then LOC729148, with inactive: 0.

Regarding KPNA4 (UniProt O00629), the “dose-dependent thermal stabilisation call” value is inactive: 0. For LPP (UniProt Q93052), the “dose-dependent thermal stabilisation call” value is inactive: 0. The value for KIF5B (UniProt P33176) was inactive: 0. As for LETMD1 (UniProt Q6P1Q0), the “dose-dependent thermal stabilisation call” value was inactive: 0. For the target LMBR1 (UniProt Q8WVP7), the “dose-dependent thermal stabilisation call” value is inactive: 0. Regarding LARP7 (UniProt Q4G0J3), the “dose-dependent thermal stabilisation call” value is inactive: 0. On to LRRC45 (UniProt Q96CN5), for which the “dose-dependent thermal stabilisation call” value is inactive: 0. Then MAGED2 (UniProt Q9UNF1), with inactive: 0; and KRR1 (UniProt Q13601), with inactive: 0.
